For at least one compound, name, drawing or mass did not settle the structure.
How the values were obtained:
[1] = system: CD11b+ myeloid cells (microglia/macrophages); experiment: RT-qPCR expression profile in MACS isolated CD11b+ myeloid cells of EAE mice; format: in vivo, mouse; settings: chronic phase, DMHCA treated animals vs untreated control (FIG. 8b)
From the text: Microglia/Macrophages were isolated according to the adult brain dissociation protocol (Miltenyi biotec). Spinal cord was isolated on ice followed by removal of meninges. Antibody labeling steps were done according to the respective antibody Microbead kit protocol (Miltenyi biotec), oligodendrocytes (04, 130-096-670) and microglia (CD11 b, 130-093-636).
For tissue expression analyses, spinal cord tissue was dissected from ˜Th10-˜L5. RNA was isolated using QIAshredder and RNeasy protocols (Qiagen). Concentration and quality of RNA was evaluated using a NanoDrop spectrophotometer and RNA Nano (Agilent). cDNA was synthesized with Superscript III (Invitrogen) and quantitative PCRs were done in triplicates with the GoTaq qPCR Master Mix (Promega) on a 7500 Fast Real-Time PCR System (Applied Biosystems). Expression values were normalized to the mean of three—five housekeeping genes, HPRT (Hypoxanthin-Phosphoribosyl-Transferase 1) and Rplp0 (60S acidic ribosomal protein P), Rps13 (Ribosomal Protein S13), Gapdh (Glyceraldehyde-3-Phosphate Dehydrogenase), 18S (18S ribosomal RNA) and quantification was done by applying the ΔΔCt method, normalized to age matched untreated controls (set to 1). All primers were intron-spanning.

[2] = system: MOG35-55 induced EAE animals; experiment: Clinical score of MOG35-55 induced EAE animals; format: in vivo, mouse; settings: therapeutic regimen, DMHCA in chow 8 mg kg−1 (FIG. 8a)
Description: For MOG-EAE, mice purchased from Charles River were immunized subcutaneously with […] myelin oligodendrocyte glycoprotein peptide 35-55 (MOG35-55) in complete Freund's adjuvant (M. tuberculosis at 3.75 mg ml^−1) and i.p. injected twice with 500 ng pertussis toxin. Animals were examined daily and scored for clinical signs of the disease. […] The clinical score was: 0 normal; 0.5 loss of tail tip tone; 1 loss of tail tone; 1.5 ataxia, mild walking deficits (slip off the grid); 2 mild hind limb weakness, severe gait ataxia, twist of the tail causes rotation of the whole body; 2.5 moderate hind limb weakness, cannot grip the grid with hind paw, but able to stay on a upright tilted grid; 3 mild paraparesis, falls down from a upright tiled grid; 3.5 paraparesis of hind limbs (legs strongly affected, but move clearly); 4 paralysis of hind limbs, weakness in forelimbs; 4.5 forelimbs paralyzed; 5 moribund/dead. […] DMHCA (Avanti) was dissolved in corn oil (Sigma) and given therapeutically in chow at a dosage of 8 mg kg^−1. IFNβ1b (Bayer) was administrated by daily intraperitoneal (i.p.) injections 30.000 U per animal.

## C[C@H](CCC(=O)N(C)C)[C@H]1CC[C@H]2[C@@H]3CC=C4C[C@@H](O)CC[C@]4(C)[C@H]3CC[C@]12C [DMHCA, N,N-dimethyl-3β-hydroxycholenamide]
[1]
  Expression of cholesterol efflux genes: upregulation
[2]
  Mean clinical score (EAE disease severity): could be reduced

— patent publication US20230047961A1, “THE CHOLESTEROL-SYNTESIS INTERMEDIATES FOR TREATMENT DEMYELINATING DISORDERS” (priority 2019, published 2023)
